Test results: patent US12091402B2 (Avilar Therapeutics, Inc., priority 2021, dated 2024)

Experiment: general procedure: Fmoc solid-phase peptide synthesis; AM Resin (0.30 mmol/g); CTC Resin; HBTU/DIEA
[1] = whole synthesis, scale 0.50 mmol

3-((2S,5aR,11S,14R,17S,20S,23S,26S,32S,35S,38S,41S,44R,47S,49aS)-35-((1H-imidazol-5-yl)methyl)-17,38-bis((1H-indol-3-yl)methyl)-2-amino-47-(carboxymethyl)-11-((R)-1-hydroxyethyl)-41-(hydroxymethyl)-23,32-diisobutyl-20-isopropyl-5,10,13,16,19,22,25,28,31,34,37,40,43,46,49-pentadecaoxooctatetracontahydro-5H-14,44-(methanodithiomethano)dipyrrolo[1,2-a:1′,2′-d][1,4,7,10,13,16,19,22,25,28,31,34,37,40,43]pentadecaazacyclopentatetracontin-26-yl)propanoic acid (PDCSWHLGELVWCTP; D-residues; cyclised or stapled)
final purity (method not given) (whole synthesis): 95.4% purity
isolated yield (whole synthesis): 27.6% yield

3-((2S,5aR,11S,14R,17S,20S,23S,26S,32S,35S,38S,41S,44R,47S,49aS)-35-((1H-imidazol-5-yl)methyl)-17,38-bis((1H-indol-3-yl)methyl)-47-(carboxymethyl)-2-(1-((2R,3R,4R,5S)-3,4-dihydroxy-5-((4-(trifluoromethyl)pyrimidin-2-yl)amino)tetrahydro-2H-pyran-2-yl)-2,5,8,11-tetraoxatridecan-13-amido)-11-((R)-1-hydroxyethyl)-23,32-diisobutyl-20-isopropyl-41-methyl-5,10,13,16,19,22,25,28,31,34,37,40,43,46,49-pentadecaoxooctatetracontahydro-5H-14,44-(methanodithiomethano)dipyrrolo[1,2-a:1′,2′-d][1,4,7,10,13,16,19,22,25,28,31,34,37,40,43]pentadecaazacyclopentatetracontin-26-yl)propanoic acid
conjugation yield (conjugation step): 59.7%
final purity (method not given) (conjugation step): 93.1% purity

3-((2S,5aR,11S,14R,17S,20S,23S,26S,32S,35S,38S,41S,44R,47S,49aS)-35-((1H-imidazol-5-yl)methyl)-17,38-bis((1H-indol-3-yl)methyl)-47-(carboxymethyl)-2-(3-(2-(2-(hex-5-ynamido)ethoxy)ethoxy)propanamido)-11-((R)-1-hydroxyethyl)-23,32-diisobutyl-20-isopropyl-41-methyl-5,10,13,16,19,22,25,28,31,34,37,40,43,46,49-pentadecaoxooctatetracontahydro-5H-14,44-(methanodithiomethano)dipyrrolo[1,2-a:1′,2′-d][1,4,7,10,13,16,19,22,25,28,31,34,37,40,43]pentadecaazacyclopentatetracontin-26-yl)propanoic acid
final purity (method not given) (whole synthesis): 97.0% purity
isolated yield (whole synthesis): 2.37%

3-((2S,5aR,11S,14R,17S,20S,23S,26S,32S,35S,38S,41S,44R,47S,49aS)-35-((1H-imidazol-5-yl)methyl)-17,38-bis((1H-indol-3-yl)methyl)-47-(carboxymethyl)-2-(3-(2-(hex-5-ynamido)ethoxy)propanamido)-11-((R)-1-hydroxyethyl)-23,32-diisobutyl-20-isopropyl-41-methyl-5,10,13,16,19,22,25,28,31,34,37,40,43,46,49-pentadecaoxooctatetracontahydro-5H-14,44-(methanodithiomethano)dipyrrolo[1,2-a:1′,2′-d][1,4,7,10,13,16,19,22,25,28,31,34,37,40,43]pentadecaazacyclopentatetracontin-26-yl)propanoic acid
final purity (method not given) (whole synthesis): 95.1% purity
isolated yield (whole synthesis): 2.20%

3-((2S,5aR,11S,14R,17S,20S,23S,26S,32S,35S,38S,41S,44R,47S,49aS)-35-((1H-imidazol-5-yl)methyl)-17,38-bis((1H-indol-3-yl)methyl)-47-(carboxymethyl)-11-((R)-1-hydroxyethyl)-23,32-diisobutyl-20-isopropyl-41-methyl-5,10,13,16,19,22,25,28,31,34,37,40,43,46,49-pentadecaoxo-2-(14-oxo-4,7,10-trioxa-13-azanonadec-18-ynamido)octatetracontahydro-5H-14,44-(methanodithiomethano)dipyrrolo[1,2-a:1′,2′-d][1,4,7,10,13,16,19,22,25,28,31,34,37,40,43]pentadecaazacyclopentatetracontin-26-yl)propanoic acid
final purity (method not given) (whole synthesis): 95.1% purity
isolated yield (whole synthesis): 1.74%

3-((2S,5aR,11S,14R,17S,20S,23S,26S,32S,35S,38S,41S,44R,47S,49aS)-35-((1H-imidazol-5-yl)methyl)-38-((1H-indol-3-yl)methyl)-2-amino-47-(carboxymethyl)-17-((5-chloro-1H-indol-3-yl)methyl)-11-((R)-1-hydroxyethyl)-23,32-diisobutyl-20-isopropyl-41-methyl-5,10,13,16,19,22,25,28,31,34,37,40,43,46,49-pentadecaoxooctatetracontahydro-5H-14,44-(methanodithiomethano)dipyrrolo[1,2-a:1′,2′-d][1,4,7,10,13,16,19,22,25,28,31,34,37,40,43]pentadecaazacyclopentatetracontin-26-yl)propanoic acid
final purity (method not given) (whole synthesis): 97.9% purity
isolated yield (whole synthesis): 18.0% yield

3-((2S,5aR,11S,14R,17S,20S,23S,26S,32S,35S,38S,41S,44R,47S,49aS)-35-((1H-imidazol-5-yl)methyl)-38-((1H-indol-3-yl)methyl)-2-amino-47-(carboxymethyl)-17-((6-chloro-1H-indol-3-yl)methyl)-11-((R)-1-hydroxyethyl)-23,32-diisobutyl-20-isopropyl-41-methyl-5,10,13,16,19,22,25,28,31,34,37,40,43,46,49-pentadecaoxooctatetracontahydro-5H-14,44-(methanodithiomethano)dipyrrolo[1,2-a:1′,2′-d][1,4,7,10,13,16,19,22,25,28,31,34,37,40,43]pentadecaazacyclopentatetracontin-26-yl)propanoic acid
final purity (method not given) (whole synthesis): 95.1% purity
isolated yield (whole synthesis): 23.3% yield

3-((6S,9R,12S,15S,18S,21S,27S,30S,33S,36S,39R,42S,44aS,46S,49aR)-30-((1H-imidazol-5-yl)methyl)-12,33-bis((1H-indol-3-yl)methyl)-42-(carboxymethyl)-6-((R)-1-hydroxyethyl)-18,27-diisobutyl-15-isopropyl-36-methyl-5,8,11,14,17,20,23,26,29,32,35,38,41,44,49-pentadecaoxo-46-(17-oxo-4,7,10,13-tetraoxa-16-azadocos-21-ynamido)octatetracontahydro-1H-9,39-(methanodithiomethano)dipyrrolo[1,2-a:1′,2′-d][1,4,7,10,13,16,19,22,25,28,31,34,37,40,43]pentadecaazacyclopentatetracontin-21-yl)propanoic acid
conjugation yield (conjugation step, run 1): 34.3% yield
final purity (method not given) (conjugation step, run 1): 95.1% purity
conjugation yield (conjugation step, run 2): 57.50% yield
final purity (method not given) (conjugation step, run 2): 97.9% purity
isolated yield (whole synthesis, overall): 2.73%

3-((6S,9R,12S,15S,18S,21S,27S,30S,33S,36S,39R,42S,44aS,46S,49aR)-30-((1H-imidazol-5-yl)methyl)-12,33-bis((1H-indol-3-yl)methyl)-46-(4-(1-(((2R,3R,4R,5R)-5-acetamido-3,4-dihydroxy-6-methoxytetrahydro-2H-pyran-2-yl)methyl)-1H-1,2,3-triazol-4-yl)butanamido)-42-(carboxymethyl)-6-((R)-1-hydroxyethyl)-18,27-diisobutyl-15-isopropyl-36-methyl-5,8,11,14,17,20,23,26,29,32,35,38,41,44,49-pentadecaoxooctatetracontahydro-1H-9,39-(methanodithiomethano)dipyrrolo[1,2-a:1′,2′-d][1,4,7,10,13,16,19,22,25,28,31,34,37,40,43]pentadecaazacyclopentatetracontin-21-yl)propanoic acid
conjugation yield (conjugation step): 66.8% yield
final purity (method not given) (conjugation step): 97.7% purity

3-((6S,9R,12S,15S,18S,21S,27S,30S,33S,36S,39R,42S,44aS,46S,49aR)-30-((1H-imidazol-5-yl)methyl)-12,33-bis((1H-indol-3-yl)methyl)-46-amino-6-((R)-1-hydroxyethyl)-18,27-diisobutyl-15-isopropyl-36,42-dimethyl-5,8,11,14,17,20,23,26,29,32,35,38,41,44,49-pentadecaoxooctatetracontahydro-1H-9,39-(methanodithiomethano)dipyrrolo[1,2-a:1′,2′-d][1,4,7,10,13,16,19,22,25,28,31, 34,37,40,43]pentadecaazacyclopentatetracontin-21-yl)propanoic acid
final purity (method not given) [1]: 97.00% purity
isolated mass [1]: 144.00 mg
isolated yield [1]: 16.640% yield
crude mass (whole synthesis, scale 0.50 mmol, run 1): 1.20 g, crude
crude mass (whole synthesis, scale 0.50 mmol, run 2): 900.0 mg, crude

3-((6S,9R,12S,15S,18S,21S,27S,30S,33S,36S,39R,42S,44aS, 46S,49aR)-30-((1H-imidazol-5-yl)methyl)-12,33-bis((1H-indol-3-yl)methyl)-42-(carboxy methyl)-46-(hex-5-ynamido)-6-((R)-1-hydroxyethyl)-18,27-diisobutyl-15-isopropyl-36-methyl-5,8,11,14,17,20,23,26,29,32,35,38,41,44,49-pentadecaoxooctatetracontahydro-1H-9,39-(methanodithiomethano)dipyrrolo[1,2-a:1′,2′-d][1,4,7,10,13,16,19,22,25,28,31,34,37,40,43]pentadecaazacyclopentatetracontin-21-yl)propanoic acid
final purity (method not given) (late stage modification step): 97.8% purity
step yield (late stage modification step): 36.54% yield

(2S,5aR,11S,14R,17S,20S,23S,26S,32S,35S,38S,41S,44R,47S,49aS)-35-((1H-imidazol-5-yl)methyl)-17,38-bis((1H-indol-3-yl)methyl)-2-amino-11-((R)-1-hydroxyethyl)-23,32-diisobutyl-20-isopropyl-26,41,47-trimethyltetratriacontahydro-5H-14,44-(methanodithiomethano)dipyrrolo[1,2-a:1′,2′-d][1,4,7,10,13,16,19,22,25,28,31,34,37,40,43]pentadecaazacyclopentatetracontine-5,10,13,16,19,22,25,28,31,34,37,40,43,46,49-pentadecaone
final purity (method not given) (whole synthesis): 95.9% purity
isolated yield (whole synthesis): 19.1% yield
